Assay results from paper PMC7363861.
Results are given in words; binding and its absence hold for the method and conditions named. For some assays here: In cells and extracts the contact can be indirect. Some binding calls cover weakened binding; strength is not graded here.

The chains behind the UniProt entries cited, without tags or fusion partners. Residues count along the entry.
UniProt Q07954, residues 20-4544: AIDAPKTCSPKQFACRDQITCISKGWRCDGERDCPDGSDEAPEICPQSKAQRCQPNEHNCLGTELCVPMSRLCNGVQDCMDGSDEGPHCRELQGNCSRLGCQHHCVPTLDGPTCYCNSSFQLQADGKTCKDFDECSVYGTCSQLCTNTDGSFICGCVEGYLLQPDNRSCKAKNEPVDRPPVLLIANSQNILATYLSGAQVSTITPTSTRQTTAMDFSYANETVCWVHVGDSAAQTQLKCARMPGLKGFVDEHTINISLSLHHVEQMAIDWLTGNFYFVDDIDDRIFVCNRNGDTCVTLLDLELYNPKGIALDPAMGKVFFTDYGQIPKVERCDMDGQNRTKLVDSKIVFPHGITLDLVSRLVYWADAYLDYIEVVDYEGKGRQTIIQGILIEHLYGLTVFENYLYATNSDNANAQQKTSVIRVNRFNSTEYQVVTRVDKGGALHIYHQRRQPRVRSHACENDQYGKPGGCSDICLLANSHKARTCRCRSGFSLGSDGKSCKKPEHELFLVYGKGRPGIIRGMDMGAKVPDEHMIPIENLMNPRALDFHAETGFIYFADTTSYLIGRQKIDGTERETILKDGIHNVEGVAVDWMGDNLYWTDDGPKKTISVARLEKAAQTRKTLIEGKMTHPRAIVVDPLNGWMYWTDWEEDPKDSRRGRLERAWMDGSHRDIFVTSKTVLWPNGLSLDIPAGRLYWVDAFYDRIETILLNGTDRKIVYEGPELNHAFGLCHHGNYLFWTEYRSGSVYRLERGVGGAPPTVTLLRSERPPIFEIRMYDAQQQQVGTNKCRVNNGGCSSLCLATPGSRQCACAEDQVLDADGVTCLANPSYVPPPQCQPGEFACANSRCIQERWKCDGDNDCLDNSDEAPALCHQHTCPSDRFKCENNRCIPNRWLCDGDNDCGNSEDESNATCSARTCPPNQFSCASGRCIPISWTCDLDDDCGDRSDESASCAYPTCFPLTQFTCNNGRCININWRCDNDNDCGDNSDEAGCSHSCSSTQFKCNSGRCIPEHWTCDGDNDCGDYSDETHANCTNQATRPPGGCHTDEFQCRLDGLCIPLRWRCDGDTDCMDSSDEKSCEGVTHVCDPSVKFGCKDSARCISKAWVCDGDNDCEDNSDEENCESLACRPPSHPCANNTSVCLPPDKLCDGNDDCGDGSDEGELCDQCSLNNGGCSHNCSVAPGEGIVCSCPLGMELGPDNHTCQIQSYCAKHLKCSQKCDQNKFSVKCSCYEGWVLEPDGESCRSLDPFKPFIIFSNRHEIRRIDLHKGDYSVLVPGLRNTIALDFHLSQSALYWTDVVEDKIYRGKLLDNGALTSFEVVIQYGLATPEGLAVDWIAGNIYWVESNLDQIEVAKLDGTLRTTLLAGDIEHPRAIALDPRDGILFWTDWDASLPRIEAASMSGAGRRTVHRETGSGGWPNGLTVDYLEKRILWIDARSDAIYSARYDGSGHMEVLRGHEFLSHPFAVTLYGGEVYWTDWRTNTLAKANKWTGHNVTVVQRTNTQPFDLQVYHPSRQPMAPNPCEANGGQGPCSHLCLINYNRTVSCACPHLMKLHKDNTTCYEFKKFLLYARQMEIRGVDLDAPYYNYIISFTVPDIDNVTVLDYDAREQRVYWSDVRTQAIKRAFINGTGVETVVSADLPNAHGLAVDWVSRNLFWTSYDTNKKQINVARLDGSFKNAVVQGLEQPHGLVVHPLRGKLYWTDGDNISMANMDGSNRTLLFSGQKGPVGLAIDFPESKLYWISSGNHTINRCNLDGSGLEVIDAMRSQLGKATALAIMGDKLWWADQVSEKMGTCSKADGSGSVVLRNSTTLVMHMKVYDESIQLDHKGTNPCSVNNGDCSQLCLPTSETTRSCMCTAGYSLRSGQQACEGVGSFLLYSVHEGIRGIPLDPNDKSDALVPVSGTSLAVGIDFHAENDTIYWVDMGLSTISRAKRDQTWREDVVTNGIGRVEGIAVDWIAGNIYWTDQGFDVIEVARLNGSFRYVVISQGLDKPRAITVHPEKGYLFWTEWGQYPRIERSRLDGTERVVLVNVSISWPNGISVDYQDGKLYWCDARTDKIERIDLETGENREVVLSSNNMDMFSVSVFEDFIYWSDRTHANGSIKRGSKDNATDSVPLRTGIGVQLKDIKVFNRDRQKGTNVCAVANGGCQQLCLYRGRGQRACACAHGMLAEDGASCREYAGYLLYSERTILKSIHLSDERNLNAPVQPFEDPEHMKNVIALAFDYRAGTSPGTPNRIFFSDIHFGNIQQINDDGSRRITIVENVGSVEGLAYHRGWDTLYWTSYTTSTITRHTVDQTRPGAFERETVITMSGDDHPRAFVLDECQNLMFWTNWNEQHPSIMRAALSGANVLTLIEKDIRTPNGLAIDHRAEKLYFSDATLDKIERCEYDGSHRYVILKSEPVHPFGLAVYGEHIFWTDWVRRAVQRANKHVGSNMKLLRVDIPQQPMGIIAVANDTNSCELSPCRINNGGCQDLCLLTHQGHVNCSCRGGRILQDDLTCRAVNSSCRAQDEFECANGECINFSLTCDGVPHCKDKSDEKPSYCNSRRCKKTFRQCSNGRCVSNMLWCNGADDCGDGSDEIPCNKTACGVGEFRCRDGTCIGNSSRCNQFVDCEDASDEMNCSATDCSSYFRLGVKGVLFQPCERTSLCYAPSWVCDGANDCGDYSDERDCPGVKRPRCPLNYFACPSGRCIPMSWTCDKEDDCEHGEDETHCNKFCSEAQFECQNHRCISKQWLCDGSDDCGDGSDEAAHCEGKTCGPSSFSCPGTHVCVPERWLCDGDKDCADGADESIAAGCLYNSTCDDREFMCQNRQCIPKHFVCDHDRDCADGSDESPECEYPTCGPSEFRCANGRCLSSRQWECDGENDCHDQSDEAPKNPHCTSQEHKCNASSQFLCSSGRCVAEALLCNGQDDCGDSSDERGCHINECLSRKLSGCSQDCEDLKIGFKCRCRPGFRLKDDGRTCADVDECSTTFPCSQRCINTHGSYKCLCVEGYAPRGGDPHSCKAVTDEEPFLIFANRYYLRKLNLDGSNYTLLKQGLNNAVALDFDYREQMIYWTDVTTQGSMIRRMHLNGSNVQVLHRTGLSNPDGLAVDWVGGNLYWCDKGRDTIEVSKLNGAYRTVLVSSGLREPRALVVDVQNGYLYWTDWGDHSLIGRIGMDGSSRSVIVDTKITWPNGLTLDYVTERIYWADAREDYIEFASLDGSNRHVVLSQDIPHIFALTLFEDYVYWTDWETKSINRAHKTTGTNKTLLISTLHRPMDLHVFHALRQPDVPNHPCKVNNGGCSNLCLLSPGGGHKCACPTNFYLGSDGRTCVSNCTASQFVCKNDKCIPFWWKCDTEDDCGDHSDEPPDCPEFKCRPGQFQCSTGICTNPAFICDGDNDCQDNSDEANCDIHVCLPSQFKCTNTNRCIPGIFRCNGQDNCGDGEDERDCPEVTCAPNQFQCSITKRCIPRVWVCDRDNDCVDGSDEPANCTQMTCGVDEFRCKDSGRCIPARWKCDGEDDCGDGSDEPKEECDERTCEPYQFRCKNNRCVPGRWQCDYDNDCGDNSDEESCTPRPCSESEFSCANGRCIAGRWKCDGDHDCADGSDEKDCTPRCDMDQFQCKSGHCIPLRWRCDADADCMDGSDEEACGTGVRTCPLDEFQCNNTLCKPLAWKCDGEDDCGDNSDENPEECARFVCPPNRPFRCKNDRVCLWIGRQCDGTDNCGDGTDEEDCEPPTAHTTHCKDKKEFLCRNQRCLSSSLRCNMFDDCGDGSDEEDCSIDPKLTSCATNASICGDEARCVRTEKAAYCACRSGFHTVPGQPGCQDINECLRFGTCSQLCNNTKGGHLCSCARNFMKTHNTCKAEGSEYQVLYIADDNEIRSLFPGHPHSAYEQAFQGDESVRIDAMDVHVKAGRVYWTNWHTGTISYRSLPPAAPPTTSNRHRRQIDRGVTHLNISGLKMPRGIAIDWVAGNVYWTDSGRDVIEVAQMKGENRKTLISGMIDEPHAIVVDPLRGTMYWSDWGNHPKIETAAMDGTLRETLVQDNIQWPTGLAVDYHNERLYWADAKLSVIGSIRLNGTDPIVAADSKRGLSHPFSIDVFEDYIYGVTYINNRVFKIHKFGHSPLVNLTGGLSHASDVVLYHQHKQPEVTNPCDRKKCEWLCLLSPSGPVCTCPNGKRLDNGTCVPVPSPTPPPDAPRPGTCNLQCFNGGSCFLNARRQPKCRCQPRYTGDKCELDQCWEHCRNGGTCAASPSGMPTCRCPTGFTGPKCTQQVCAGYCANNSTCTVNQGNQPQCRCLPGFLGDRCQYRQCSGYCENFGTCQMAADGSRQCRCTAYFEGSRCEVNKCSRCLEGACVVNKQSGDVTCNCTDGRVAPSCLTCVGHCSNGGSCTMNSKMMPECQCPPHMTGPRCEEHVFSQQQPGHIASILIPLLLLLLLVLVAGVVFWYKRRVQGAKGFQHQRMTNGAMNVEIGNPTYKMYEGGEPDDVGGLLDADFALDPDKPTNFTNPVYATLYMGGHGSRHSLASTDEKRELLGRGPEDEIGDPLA
UniProt P02788, residues 20-710: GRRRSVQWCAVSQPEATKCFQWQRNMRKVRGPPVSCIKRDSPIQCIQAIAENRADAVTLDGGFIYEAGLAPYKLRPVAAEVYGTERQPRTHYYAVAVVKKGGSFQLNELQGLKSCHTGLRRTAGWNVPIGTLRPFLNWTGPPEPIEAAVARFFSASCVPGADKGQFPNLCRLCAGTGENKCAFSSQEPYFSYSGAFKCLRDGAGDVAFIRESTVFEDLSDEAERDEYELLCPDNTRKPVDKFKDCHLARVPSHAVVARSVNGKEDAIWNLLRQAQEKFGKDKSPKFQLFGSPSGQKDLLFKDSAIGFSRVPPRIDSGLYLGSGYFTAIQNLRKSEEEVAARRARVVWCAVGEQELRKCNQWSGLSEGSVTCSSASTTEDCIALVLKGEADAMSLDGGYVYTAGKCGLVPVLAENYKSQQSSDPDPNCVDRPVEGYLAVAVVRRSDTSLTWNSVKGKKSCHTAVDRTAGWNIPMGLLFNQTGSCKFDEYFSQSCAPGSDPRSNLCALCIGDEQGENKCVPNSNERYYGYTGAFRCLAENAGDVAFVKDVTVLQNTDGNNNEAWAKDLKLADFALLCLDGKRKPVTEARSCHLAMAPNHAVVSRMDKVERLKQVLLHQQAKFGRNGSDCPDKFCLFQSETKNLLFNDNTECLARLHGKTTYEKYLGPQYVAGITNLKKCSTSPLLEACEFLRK
UniProt Q8WWA0, residues 19-298: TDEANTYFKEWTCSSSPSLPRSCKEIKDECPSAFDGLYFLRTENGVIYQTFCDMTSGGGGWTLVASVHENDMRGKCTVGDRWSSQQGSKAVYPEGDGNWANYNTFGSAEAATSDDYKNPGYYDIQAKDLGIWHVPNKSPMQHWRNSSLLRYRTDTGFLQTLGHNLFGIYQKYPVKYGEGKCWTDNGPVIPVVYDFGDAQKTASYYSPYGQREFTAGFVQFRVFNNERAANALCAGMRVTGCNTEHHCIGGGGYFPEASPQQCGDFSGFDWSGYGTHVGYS

How the values were obtained:
[1] = target: LRP1 (low-intensity lipoprotein-receptor-related protein 1) (human (endogenous in SKOV3 and A224)) (UniProt Q07954); assay: proximity ligation; Duolink PLA on SKOV3 and A224 cells fixed with 3.7% formaldehyde; anti-LRP1 (ab92544) and anti-LTF (sc-52048) antibodies; with or without ITLN1; controls: no primary antibody, anti-LTF plus normal rabbit IgG; only the binder purified
[2] = target: LTF (lactotransferrin) from human milk (human) (UniProt P02788); assay: pull-down; called 'in vitro pull-down assay': LTF from human milk and recombinant human ITLN1 incubated in serum-free medium at 37 °C for 24 h; medium incubated with anti-LTF antibody (sc-52048) 2 h at 4 °C, protein A/G PLUS-agarose beads; western blot with anti-ITLN1; normal mouse IgG as control; both purified

binding [1]	binding [2]	Substance
binds		LTF (lactotransferrin) from human milk (from UniProt P02788 20-710)
	binds	recombinant human ITLN1 (intelectin-1, or omentin) (from UniProt Q8WWA0 19-298)
